From the supplement of paper PMC7411640
Counter-ions that a name gives are not always drawn. The list shows a part of the results. Single values are uncertain here, since repeats match poorly.

Tested on: MDA-MB-468
Experiment: phospho-S6 immunofluorescence (DAPI-normalised), per-plate z-score; higher = higher phospho-S6 signal (less pathway suppression)
Details: 24 h
Description: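 GPCR-targeted compound library (MedChemExpress HY-L006) tested on MDA-MB-468 PTEN-null TNBC cells in 384-well plates at 0.1, 1 or 10 uM, combined with vehicle, GDC0941 450 nM or lapatinib 1 uM, for 24 h. Phospho-S6 (S240/244) immunofluorescence normalised to DAPI and expressed as a per-plate z-score; values are the mean of biological triplicates.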

[1] = compound 0.1 µM, co-treatment: GDC0941 450 nM
[2] = compound 0.1 µM, co-treatment: lapatinib 1 uM
[3] = compound 0.1 µM, co-treatment: vehicle
[4] = compound 1 µM, co-treatment: GDC0941 450 nM
[5] = compound 1 µM, co-treatment: lapatinib 1 uM
[6] = compound 1 µM, co-treatment: vehicle
[7] = compound 10 µM, co-treatment: GDC0941 450 nM
[8] = compound 10 µM, co-treatment: lapatinib 1 uM
[9] = compound 10 µM, co-treatment: vehicle

Row | Compound | phospho-S6 immunofluorescence (z-score) [1] | phospho-S6 immunofluorescence (z-score) [2] | phospho-S6 immunofluorescence (z-score) [3] | phospho-S6 immunofluorescence (z-score) [4] | phospho-S6 immunofluorescence (z-score) [5] | phospho-S6 immunofluorescence (z-score) [6] | phospho-S6 immunofluorescence (z-score) [7] | phospho-S6 immunofluorescence (z-score) [8] | phospho-S6 immunofluorescence (z-score) [9]
1 | O=C(Nc1cccc2c(=O)cc(-c3nnn[nH]3)oc12)c1ccc(OCCCCc2ccccc2)cc1 [Pranlukast (hemihydrate)] | 0.7 | -0.53 | -0.54 | 0.66 | 1.23 | 0.7 |  |  | 
2 | COc1ccccc1Oc1c(NS(=O)(=O)c2ccc(C(C)(C)C)cc2)nc(-c2ncccn2)nc1OCCO [Bosentan] | 0.14 | -0.44 | -0.79 | 0.25 | -0.3 | 0.02 |  |  | 
3 | CC(C)=CCC/C(C)=C/CC/C(C)=C/CSc1ccccc1C(=O)O [Salirasib] | 0.68 | -0.05 | -0.53 | 1.06 | 0.01 | -0.24 |  |  | 
4 | C[C@H](Nc1cc(NS(=O)(=O)N2CCC2)nc(SCc2cccc(F)c2F)n1)[C@@H](O)CO | -2.14 | -1.69 | -0.88 | -1.16 | -0.41 | -1.02 |  |  | 
5 | CCNC(=O)[C@@H]1CCCN1C(=O)[C@H](CCCNC(=N)N)NC(=O)[C@H](CC(C)C)NC(=O)[C@@H](CC(C)C)NC(=O)[C@H](Cc1ccc(O)cc1)NC(=O)[C@H](CO)NC(=O)[C@H](Cc1c[nH]c2ccccc12)NC(=O)[C@H](Cc1c[nH]cn1)NC(=O)[C@@H]1CCC(=O)N1 [Leuprolide (Acetate)] | 0.17 | -0.36 | -0.88 | 1.23 | -0.5 | 0.35 |  |  | 
6 | CN(C)CCC(c1ccccc1)c1ccccn1 (stereo unspecified) [Pheniramine (Maleate)] | -1.65 | -1.57 | -0.63 | -0.5 | -1.45 | -0.55 |  |  | 
7 | COc1ccc(/C=C/C(=O)Nc2ccccc2C(=O)O)cc1OC [Tranilast (trans-)] | 0.72 | 0.95 | 0.42 | 1.44 | 0 | 0.24 |  |  | 
8 | CCc1c(C)[nH]c2c1C(=O)C(CN1CCOCC1)CC2 (stereo unspecified) [Molindone (hydrochloride)] | 1.37 | 1.1 | -1.56 | -0.23 | 1.5 | -0.47 |  |  | 
9 | Cc1cc(C)nc(NS(=O)(=O)c2ccc(NC(=S)NC(=O)COc3ccc(Br)cc3Cl)cc2)n1 | 1.44 | 0.77 | 0.82 | 0.47 | -0.49 | 0.5 |  |  | 
10 | CNc1nc(NCc2ccc(NS(C)(=O)=O)cc2Cl)cc(-c2ccccn2)n1 | 2.06 | -0.36 | -0.86 | 2.16 | 0.64 | 0.09 |  |  | 
11 | NCCCCN(Cc1nc2ccccc2[nH]1)[C@H]1CCCc2cccnc21 [AMD-070 (hydrochloride)] | 1.28 | -0.05 | 2.3 | -0.8 | 0.55 | 4.21 |  |  | 
12 | NC(=O)NC1NC(=O)NC1=O (stereo unspecified) [Allantoin] | 0.75 | 1.63 | 0.18 | 0.34 | 0.72 | 0.51 |  |  | 
13 | O=C1Cc2cc(CCN3CCN(c4nsc5ccccc45)CC3)c(Cl)cc2N1 [Ziprasidone (hydrochloride monohydrate)] | 0.4 | 0.5 | -0.15 | -0.23 | 0.92 | -1.2 |  |  | 
14 | CC(=O)OCC(=O)[C@@]1(O)CC[C@H]2[C@@H]3CCC4=CC(=O)CC[C@]4(C)[C@H]3[C@@H](O)C[C@@]21C [Hydrocortisone (acetate)] | -0.56 | -0.06 | -0.09 | -1.11 | 1.35 | 0.97 |  |  | 
15 | Cc1cc(NC(=O)NCCN2CCC(O)(Cc3ccccc3)CC2)c2ccccc2n1 [Palosuran] | -0.44 | 0.29 | 0.98 | -1.31 | 0.21 | 0.18 |  |  | 
16 | CCCCC1=NC2(CCCC2)C(=O)N1Cc1ccc(-c2ccccc2-c2nnn[nH]2)cc1 [Irbesartan] | -0.14 | -0.28 | -0.06 | -0.59 | -0.5 | -0.48 |  |  | 
17 | CN1CC2c3ccccc3Oc3ccc(Cl)cc3C2C1 (stereo unspecified) [Asenapine (hydrochloride)] | -1.3 | 0.18 | -0.02 | -1.15 | -1.24 | -1.24 |  |  | 
18 | CN(C)CCC(c1ccc(Br)cc1)c1ccccn1 (stereo unspecified) [Brompheniramine (maleate)] | 0.08 | -0.39 | -0.68 | -0.52 | -0.37 | 1.16 |  |  | 
19 | Cc1c(CC(=O)O)c2cccnc2n1Cc1ccc(S(C)(=O)=O)cc1C(F)(F)F [Fevipiprant] | 0.86 | -0.03 | 1.24 | 0.27 | 0.08 | 0.63 |  |  | 
20 | Cc1nccn1CCC(C(N)=O)(c1ccccc1)c1ccccc1 [Imidafenacin] | 1.13 | -0.17 | 1.44 | -0.78 | 0.48 | 1.02 |  |  | 
21 | CN(C)CCSSCCNC(=O)C1CCN(C(=O)CSc2ccc(Cl)cc2)CC1 [6H05 (trifluoroacetate)] | -0.63 | 0.14 | -0.7 | -1.39 | -0.02 | -0.51 |  |  | 
22 | CC[N+](CC)(CC)CCOc1cccc(OCC[N+](CC)(CC)CC)c1OCC[N+](CC)(CC)CC [Gallamine Triethiodide] | 2.01 | -0.53 | 0.83 | -0.17 | 0.47 | 0.58 |  |  | 
23 | CC1(C)C(=O)N(CCN2CCC(C(=O)c3ccc(F)cc3)CC2)c2ccccc21 | -0.02 | -0.2 | -0.1 | 0.58 | -0.23 | -0.7 |  |  | 

Gathered by group: the entries above with an aryl thioether with sulfur outside any ring (three)
Row | Compound | phospho-S6 immunofluorescence (z-score) [1] | phospho-S6 immunofluorescence (z-score) [2] | phospho-S6 immunofluorescence (z-score) [3] | phospho-S6 immunofluorescence (z-score) [4] | phospho-S6 immunofluorescence (z-score) [5] | phospho-S6 immunofluorescence (z-score) [6] | phospho-S6 immunofluorescence (z-score) [7] | phospho-S6 immunofluorescence (z-score) [8] | phospho-S6 immunofluorescence (z-score) [9]
3 | CC(C)=CCC/C(C)=C/CC/C(C)=C/CSc1ccccc1C(=O)O [Salirasib] | 0.68 | -0.05 | -0.53 | 1.06 | 0.01 | -0.24 |  |  | 
4 | C[C@H](Nc1cc(NS(=O)(=O)N2CCC2)nc(SCc2cccc(F)c2F)n1)[C@@H](O)CO | -2.14 | -1.69 | -0.88 | -1.16 | -0.41 | -1.02 |  |  | 
21 | CN(C)CCSSCCNC(=O)C1CCN(C(=O)CSc2ccc(Cl)cc2)CC1 [6H05 (trifluoroacetate)] | -0.63 | 0.14 | -0.7 | -1.39 | -0.02 | -0.51 |  |  | 

(continued)

Row | Compound | phospho-S6 immunofluorescence (z-score) [1] | phospho-S6 immunofluorescence (z-score) [2] | phospho-S6 immunofluorescence (z-score) [3] | phospho-S6 immunofluorescence (z-score) [4] | phospho-S6 immunofluorescence (z-score) [5] | phospho-S6 immunofluorescence (z-score) [6] | phospho-S6 immunofluorescence (z-score) [7] | phospho-S6 immunofluorescence (z-score) [8] | phospho-S6 immunofluorescence (z-score) [9]
24 | N[C@@H](Cc1ccc(O)c(O)c1)C(=O)O | -0.08 | -0.17 | -1.07 | 0.67 | 0.16 | -0.12 |  |  | 
25 | O=C(NCC(=O)N1CC[C@H](N[C@H]2CC[C@@](O)(c3ccc(-c4ncccn4)cn3)CC2)C1)c1cccc(C(F)(F)F)c1 | 1.37 | -0.43 | 0.77 | -0.42 | -0.34 | 1.18 |  |  | 
26 | C[C@H](Cc1cc2c(c(C(N)=O)c1)N(CCCO)CC2)NCCOc1ccccc1OCC(F)(F)F [Silodosin] | -0.37 | 0.57 | 0.23 | -0.98 | -0.13 | 0.25 |  |  | 
27 | CNCC(O)c1ccc(O)c(O)c1 (racemic) [DL-Epinephrine] | 0.33 | -0.13 | -0.93 | 0.26 | 3.48 | 0.49 |  |  | 
28 | c1ccc2c(c1)CCCC2C1=NCCN1 (stereo unspecified) [Tetrahydrozoline (hydrochloride)] | 0.36 | 0.46 | -0.03 | 0.71 | 0.12 | 0.05 | 0.32 | 0.87 | 0.75
29 | COc1ccc2[nH]cc(CCNC(C)=O)c2c1 [Melatonin] | 0.18 | 0.9 | -0.78 | -0.75 | 1.33 | -1.56 | -1.25 | 0.24 | -0.21
30 | COc1cc2nc(N(C)CCCNC(=O)C3CCCO3)nc(N)c2cc1OC (stereo unspecified) [Alfuzosin] | -0.96 | -0.34 | 0.03 | 0.46 | -0.14 | 0.13 |  |  | 
31 | CN/C(=N\CCSCc1nc[nH]c1C)NC#N [Cimetidine] | 0.51 | -0.49 | -0.14 | 0.24 | 0.16 | -0.35 |  |  | 
32 | COc1ccc(N2CCOCC2)c2sc(NC(=O)N3CCC(C)(O)CC3)nc12 [Tozadenant] | 1.45 | 0.07 | 0.83 | -1.05 | -0.43 | 0.63 |  |  | 
33 | CN1CCN(CC(=O)N2c3ccccc3C(=O)Nc3cccnc32)CC1 [Pirenzepine (dihydrochloride)] | 1.31 | 0.13 | 1.85 | 1.67 | 0.29 | 2.34 |  |  | 
34 | Cc1ccc(OCC(O)C(C)NC(C)C)c2c1CCC2 (stereo unspecified) [ICI 118,551 (hydrochloride)] | 0.22 | -0.26 | 1.36 | 1.22 | 0.88 | -0.07 |  |  | 
35 | CC(ONC(=O)c1cc(C(F)(F)F)cc(C(F)(F)F)c1)C(=O)Nc1ccc(Cl)cc1 (stereo unspecified) | 0.76 | 0.5 | 0.77 | -0.14 | 0.34 | 0.79 |  |  | 
36 | CCCN(CCc1cccs1)[C@H]1CCc2c(O)cccc2C1 [Rotigotine (Hydrochloride)] | 0.48 | -1.11 | -1.28 | -0.17 | -0.39 | -1.37 |  |  | 
37 | CC[C@H](NC(=O)c1c(O)c(-c2ccccc2)nc2ccccc12)c1ccccc1 [Talnetant] | -0.35 | -1.46 | -1.05 | -0.25 | -0.44 | -0.26 | 0.6 | 0.47 | 0.13
38 | Fc1ccc(-c2cncc(CN3CCN(c4cccc5c4OCCO5)CC3)c2)cc1 [Adoprazine] | -0.21 | -0.2 | -1.15 | -0.22 | -0.65 | -1.91 |  |  | 
39 | O=C(O)CCCN1CCC(O[C@@H](c2ccc(Cl)cc2)c2ccccn2)CC1 [Bepotastine (Beslilate)] | -1.04 | 0.33 | 0.13 | -0.66 | -0.61 | 0 | -0.72 | -0.17 | 0.56
40 | CN(C)CCOC(c1ccccc1)c1ccccc1 [Diphenhydramine (hydrochloride)] | 0.1 | -0.03 | 0.31 | 0.89 | 0.09 | 0.56 |  |  | 
41 | CCCCc1ncc(/C=C(\Cc2cccs2)C(=O)O)n1Cc1ccc(C(=O)O)cc1 [Eprosartan (mesylate)] | -0.01 | -0.01 | -0.1 | 0.77 | -0.19 | 0.99 | 0.37 | 0.05 | 0.01
42 | O=c1cc(C(Cl)(Cl)Cl)oc2ccc(Cl)cc12 | -0.28 | 8.2 | 5.48 | -7.24 | -13.5 | -11.4 |  |  | 
43 | Cc1[nH]cnc1CN1CCc2c(c3ccccc3n2C)C1=O [Alosetron (Hydrochloride)] | 1.15 | 0 | 0.8 | 2.08 | -0.02 | -0.34 |  |  | 
44 | O=C(N[C@H]1CCN(C(=O)c2cc(C(F)(F)F)cc(C(F)(F)F)c2)[C@H](Cc2ccc(Cl)cc2)C1)c1ccnc2ccccc12 | -0.77 | -0.58 | -0.27 | 0.05 | -0.8 | 0.07 |  |  | 
45 | Nc1nccc(/C=C/c2ccccc2)n1 | 0.75 | 2.29 | 1.34 | -0.54 | 0.68 | 0.84 |  |  | 
46 | CCN(CC)CCOC(=O)[C@@H](Cc1cccc2ccccc12)C[C@@H]1CCCO1 [Naftidrofuryl (oxalate)] | -1.21 | -0.78 | -1.62 | -1.03 | -0.83 | -2.09 |  |  | 
